Several values for one entry are separate records, joined by “and”; a condition that tells them apart may be missing. Equal values may be shown once. The list shows a part of the results. The main result of the screen is listed elsewhere. These columns were measured beside it and carry no call. Compounds called inactive in the main read-out are mostly missing here. The note in brackets gives the kind of curve behind each potency; many fits are weak.
Assay: qHTS Assay to Find Inhibitors of Chronic Active B-Cell Receptor Signaling
Settings: ABC-DLBCL IkBa-CBG/CBR reporter, luminescence ratio (green luciferase fused to IkBa over red control in TMD8 lymphoma cells), 4 h
Summary of the method: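 Concentration-response series (up to 46 uM) were applied to TMD8 dual-reporter cells for 4 h at 37C with doxycycline. Green/red ratio, after filter-overlap correction, defined %Activity; red signal alone was normalised to basal cells and zero luminescence.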

[1] = measured here: IkBa-CBG green luminescence
[2] = measured here: CBR red luminescence, cell number

SMILES	AC50 [1]	AC50 [2]
CCOc1ccc(/C=C2\SC(=S)NC2=O)cc1OC	11.2 µM [rising, partial curve, poor fit]	–
Cc1ccc(NS(=O)(=O)c2cc(NC(=O)C(C)Oc3ccccc3)ccc2C)c(C)c1 (stereo not given)	–	0.92 µM [falling, full curve, poor fit]
CCN1CCN(C(c2cccnc2)c2cc(Cl)c3cccnc3c2O)CC1 (stereo not given)	–	28.2 µM [falling, single point]
COc1ccccc1N1CCN(C(=O)C2CCN(C(=O)c3ccccc3C)CC2)CC1	–	11.2 µM [rising, partial curve, poor fit]
Cc1ccccc1OCC(=O)N(Cc1nnc(-c2ccc(Cl)cc2)o1)C(C)C	–	5.17 µM [rising, single point]
CC(=O)c1sc(NC(=O)C2CC(=O)N(Cc3ccco3)C2)nc1-c1ccccc1 (stereo not given)	–	10.3 µM [falling, partial curve]
COC(=O)c1sccc1N/N=C(\C)c1ccc(F)c(Cl)c1	–	6.51 µM [rising, single point]
CCCCC(C(=O)O)C(C)CC(=O)NNC(=O)c1ccco1 (stereo not given)	–	15.8 µM [falling, partial curve, poor fit]
COc1ccccc1N1CCN(S(=O)(=O)c2ccc3c(c2)NC(=O)C(C)C(=O)N3)CC1 (stereo not given)	–	0.282 µM [rising, full curve, poor fit]
COc1ccc(NC(=O)C/C(C)=N/NC(=O)c2cnccn2)cc1	–	11.2 µM [falling, partial curve, poor fit]
N=c1c(S(=O)(=O)c2ccc(Cl)cc2)cc2c(=O)n3ccccc3nc2n1Cc1ccco1	–	1.26 µM [falling, partial curve, poor fit]
Cc1ccc(/C=C/C(=O)Nc2ccc(N(C)C)cc2)o1	–	8.2 µM [falling, partial curve]
CC1CN(C(=O)COC(=O)c2ccc(NC(=O)CC#N)cc2)CC(C)O1 (stereo not given)	–	35.5 µM [falling, single point]
N#CCCNc1c(Cl)cc(Cl)cc1C(=O)O	–	9.2 µM [rising, partial curve, poor fit]
CNC(=O)c1ccc(Nc2nnc(-c3ccc(C)c(S(N)(=O)=O)c3)c3ccccc23)cc1	–	7.94 µM [rising, partial curve, poor fit]
O=C(c1cn(-c2ccccc2)nc1-c1ccccc1)N1CCN(c2ccccn2)CC1	–	22.4 µM [falling, partial curve, poor fit]
COc1ccccc1-c1cc(C(F)(F)F)nc(S(=O)(=O)CCCC(=O)NC(C)C)n1	–	0.316 µM [falling, full curve, poor fit]
CCn1nc(C)c(CNC(=O)CCc2nnc(Cc3c[nH]c4ccccc34)o2)c1C	–	11.2 µM [rising, single point]
CCOc1cc(C(=S)N2CCC(O)CC2)ccc1OS(=O)(=O)c1ccc(Br)cc1	–	5.17 µM [falling, partial curve]
O=C(O)C1CCC(Cn2c(SCc3cc(=O)n4ccccc4n3)nc3ccsc3c2=O)CC1 (stereo not given)	–	0.501 µM [rising, partial curve, poor fit]

Structural class, those above containing a carbonyl joined to an NH by a bond outside any ring.
SMILES	AC50 [1]	AC50 [2]
Cc1ccc(NS(=O)(=O)c2cc(NC(=O)C(C)Oc3ccccc3)ccc2C)c(C)c1 (stereo not given)	–	0.92 µM [falling, full curve, poor fit]
CC(=O)c1sc(NC(=O)C2CC(=O)N(Cc3ccco3)C2)nc1-c1ccccc1 (stereo not given)	–	10.3 µM [falling, partial curve]
CCCCC(C(=O)O)C(C)CC(=O)NNC(=O)c1ccco1 (stereo not given)	–	15.8 µM [falling, partial curve, poor fit]
COc1ccc(NC(=O)C/C(C)=N/NC(=O)c2cnccn2)cc1	–	11.2 µM [falling, partial curve, poor fit]
Cc1ccc(/C=C/C(=O)Nc2ccc(N(C)C)cc2)o1	–	8.2 µM [falling, partial curve]
CC1CN(C(=O)COC(=O)c2ccc(NC(=O)CC#N)cc2)CC(C)O1 (stereo not given)	–	35.5 µM [falling, single point]
CNC(=O)c1ccc(Nc2nnc(-c3ccc(C)c(S(N)(=O)=O)c3)c3ccccc23)cc1	–	7.94 µM [rising, partial curve, poor fit]
COc1ccccc1-c1cc(C(F)(F)F)nc(S(=O)(=O)CCCC(=O)NC(C)C)n1	–	0.316 µM [falling, full curve, poor fit]
CCn1nc(C)c(CNC(=O)CCc2nnc(Cc3c[nH]c4ccccc34)o2)c1C	–	11.2 µM [rising, single point]

Record cards, as listed above. Values in the order: AC50 [1]	AC50 [2]
N=c1c(S(=O)(=O)c2ccc(Cl)cc2)cc2c(=O)n3ccccc3nc2n1Cc1ccco1 in the list: –	1.26 µM [falling, partial curve, poor fit]
CCOc1cc(C(=S)N2CCC(O)CC2)ccc1OS(=O)(=O)c1ccc(Br)cc1 in the list: –	5.17 µM [falling, partial curve]

Later entries:

SMILES	AC50 [1]	AC50 [2]
COC(=O)c1cc(C(=O)NCCC(C)C)cc([N+](=O)[O-])c1	11.2 µM [rising, partial curve, poor fit]	–
O=C(NN1C(=O)NC2(CCCCC2)C1=O)c1ccc(-c2ccc(Cl)cc2)o1	–	20.6 µM [falling, single point]
CC(=O)OC[C@H]1O[C@H](CCO/N=C(\C)CCN2CCCc3nc(C)c(C)cc32)C=C[C@@H]1OC(C)=O	–	7.31 µM [rising, partial curve]
O=C(N/N=C/c1cccnc1)c1ccccc1OCc1ccc(Br)cc1	–	0.501 µM [falling, full curve, poor fit]
O=C(NCc1cccs1)c1cc2c(s1)-c1ccccc1OC2	7.31 µM [rising, partial curve, poor fit]	13 µM [falling, partial curve]
O=C(Nc1ccnc(-c2ccncc2)n1)c1cccs1	–	20 µM [rising, single point]
NS(=O)(=O)c1cccc(NC(=O)COC(=O)c2cc(-c3ccc(Cl)cc3)nc3ccccc23)c1	–	16.4 µM [falling, single point]
O=C(NNC(=S)Nc1ccccc1)C1CCCCC1	–	12.6 µM [falling, partial curve, poor fit]
O=C(Nc1ccc(Cl)c(Cl)c1)N(CCCN1CCOCC1)Cc1cccs1	–	16.4 µM [falling, single point]
CC(C)OCCCNc1ncc2c(n1)CC(c1ccccc1)CC2=O (stereo not given)	–	22.4 µM [falling, single point]
COc1ccc(C(=O)c2sc(Nc3ccccc3)nc2N)cc1OC	–	11.2 µM [falling, single point]
COc1ccccc1NC(=O)C1CCCN(c2nc(C)cc(C)n2)C1 (stereo not given)	–	5.8 µM [rising, full curve]
CC(=O)C1=C(O)C(=O)N(C)C1c1ccccc1[N+](=O)[O-] (stereo not given)	–	10 µM [rising, partial curve]
COC(=O)c1ccc(NC(=S)NC(=O)c2cc(-c3ccccc3)nc3ccccc23)cc1	–	7.31 µM [rising, partial curve, poor fit]
O=C(c1ccc(Cl)cc1)N1CCC(O)(CSc2ccc(Cl)cc2Cl)CC1	25.9 µM [rising, single point]	20.6 µM [falling, single point]
COc1ccc2c(c1)C(=C(C#N)C#N)C(=O)N2CCc1ccccc1	–	0.562 µM [falling, full curve, poor fit]
CNc1nnc(-c2cc3ccccc3oc2=O)s1	–	2.82 µM [falling, full curve]
COC(=O)c1cc(O)cc(OC)c1Oc1cc(C)cc(O)c1C(=O)O	–	10 µM [falling, partial curve]
O=C1CC(N2CCN(c3nc4ccccc4s3)CC2)C(=O)N1c1ccc(F)cc1 (stereo not given)	–	29.1 µM [rising, single point]
N#Cc1c(NC(=O)CN2CCOCC2)oc(-c2ccccc2)c1-c1ccccc1	–	23.1 µM [falling, partial curve, poor fit]

SMILES	AC50 [1]	AC50 [2]
Cc1csc(NC(=O)CSc2nnc(-c3ccoc3C)n2CCc2ccccc2)n1	–	22.4 µM [falling, single point]
COc1ccc(C(=O)On2c(-c3ccc(Br)cc3)nc3ccccc3c2=O)cc1	–	16.4 µM [falling, single point]
CCC1CCc2sc(C(=O)NCc3ccccn3)cc2C1 (stereo not given)	–	0.794 µM [rising, full curve, poor fit]
O=C(O)COc1ccc(/C=N/NC(=O)c2ccc(-c3csc(Nc4ccc(Cl)cc4)n3)cc2)cc1	–	2.51 µM [falling, partial curve, poor fit]
COc1ccc(C(=O)N2CCc3cc(OC)c(OC)cc3C2c2ccc(OC)c(OC)c2)cc1 (stereo not given)	14.1 µM [falling, partial curve, poor fit]	3.16 µM [rising, full curve, poor fit]
CCOC(=O)C1CCCN(C(=O)c2ccc3[nH]c4c(c3c2)CC(C)CC4)C1 (stereo not given)	–	0.58 µM [falling, full curve, poor fit]
CC(C)(C)OC(=O)C[C@H]1C/C=C\C[C@@H](CC(=O)N(CCO)Cc2ccccc2)C(=O)N2CCC[C@H]2COC1=O	–	23.1 µM [rising, partial curve, poor fit]
Cc1cccc(CNc2ncnc3ccc(-c4ccc5c(c4)OCCO5)cc23)c1	–	16.4 µM [falling, partial curve, poor fit] and 29.1 µM [falling, single point]
CCOC(=O)c1csc(N/N=C2\CCc3ccccc32)n1	–	1 µM [rising, partial curve]
O=C(N/N=C/c1c[nH]c2ccccc12)c1cc(Br)ccc1O	–	0.891 µM [falling, full curve, poor fit]
N#Cc1ccc(C(=O)Nc2cccc(S(=O)(=O)NC3=NCCC3)c2)cc1	–	2.06 µM [falling, partial curve, poor fit]
Cc1cc(C)cc(OCC(=O)N2CCc3ccccc3C2)c1	–	11.2 µM [rising, partial curve]
CCCn1nnc(NC(=O)c2cc(Br)ccc2OC)n1	–	0.231 µM [rising, full curve, poor fit]
O=C(Nc1cccc2cccnc12)c1cc(F)c(F)cc1Cl	–	12.6 µM [rising, partial curve]
CCc1ccc(-c2cc(C(=O)N/N=C/c3ccccn3)[nH]n2)cc1	–	22.4 µM [falling, partial curve, poor fit]
Cc1nc(-c2cccc(S(=O)(=O)N3CCC(C(=O)NCc4ccccc4)CC3)c2)no1	–	2.82 µM [rising, partial curve, poor fit]
O=[N+]([O-])c1ccc(Sc2cccc3cccnc23)c([N+](=O)[O-])c1	–	32.6 µM [falling, single point]
COc1cccc(-n2cc(CNCc3c(C(=O)N(C)C)nc4ccc(Cl)cn34)cn2)c1	2.51 µM [rising, partial curve, poor fit]	4.47 µM [rising, full curve, poor fit]
CC(Cc1cccnc1)NC(=O)c1ccccc1OC1CCN(S(C)(=O)=O)CC1 (stereo not given)	–	11.2 µM [rising, partial curve, poor fit]
COc1cccc(OCC(=O)Nc2ccc(OC)c(OC)c2)c1	20.6 µM [rising, partial curve, poor fit]	23.1 µM [falling, partial curve]
